The target in this experiment is FAM172A bait of the BioID2-based screen. Description: proximity labelling.

Results are given in words; binding and its absence hold for the method and conditions named. In cells and extracts the contact can be indirect. These calls come from enrichment with a bait or labelling near it, and not all partners need be listed.

B1: Nucleoporin NUP-155 (protein, UniProt Q99P88 1-1391)
chain: MPSVLGSMMVASTSAAASLQEALENAGRLIDRQLQEDRMYPDLSELLMVSAPNSPTVSGMSDMDYPLQGPGLLSVPSLPEISTIRRVPLPPELVEQFGHMQCNCMMGVFPPISRAWLTIDSDIFMWNYEDGGDLAYFDGLSETILAVGLVKPKAGIFQPHVRHLLVLATPVDIVILGLSYANVQTGSGILNDSMCGGMQLLPDPLYSLPTDNTYLLTITSTDNGRIFLAGKDGCLYEVAYQAEAGWFSQRCRKINHSKSSLSFLVPSLLQFTFSEDDPIVQIEIDNSRNILYTRSEKGVIQVYDLGHDGQGMSRVASVSQNAIVSAAGNIARTIDRSVFKPIVQIAVIESSESLDCQLLAVTHAGVRLYFSTCPFRQPLARPNTLTLVHVRLPPGFSASSTVEKPSKVHKALYSKGILLMTASENEDNDILWCVNHDTFPFQKPMMETQMTTRVDGHSWALSAIDELKVDKIITPLNKDHIPITDSPVVVQQHMLPPKKFVLLSAQGSLMFHKLRPVDQLRHLLVSNVGGDGEEIERFFKLHQEDQACATCLILACSTAACDREVSAWATRAFFRYGGEAQMRFPATLPTPSNVGPILGSPMYSSSPVPSGSPYPNPSSLGTPSHGAQPPTMSTPMCAVGSPAMQAASMSGLTGPEIVYSGKHNGICIYFSRIMGNIWDASLVVERVFKSSNREITAIESSVPVQLLESVLQELKGLQEFLDRNSQFSGGPLGNPNTTARVQQRLVGFMRPENGNTQQMQQELQRKFQEAQLSEKISLQAIQQLVRKSYQALALWKLLCEHQFSVIVGELQKEFQEQLKITTFKDLVIRDKEVTGALIASLINCYIRDNAAVDGISLHLQDTCPLLYSTDDAVCSKANELLQRSRQVQSKTERERMLRESLKEYQKISNQVDLPSVCAQYRQVRFYEGVVELSLTAAEKKDPQGLGLHFYKHGEPEEDVVGLQTFQERLNSYKCITDTLQELVNQSKAAPQSPSVPKKPGPPVLSSDPNMLSNEEAGHHFEQMLKLAQRSKDELFSIALYNWLIQADLADKLLQIASPFLEPHLVRMARVDQNRVRYMDLLWRYYEKNRSFSSAARVLSKLADMHSTEISLQQRLEYIARAILSAKSSTAISSIAADGEFLHELEEKMEVARIQLQIQETLQRQYSHHSSVQDAISQLDSELMDITKLYGEFADPFKLAECKLAVIHCAGYSDPILVHTLWQDIIEKELNDSVALSSSDRMHALSLKLVLLGKIYAGTPRFFPLDFIVQFLEQQVCTLNWDVGFVIQTMNEIGVPLPRLLEVYDQLFKSRDPFWNRVKSPLHLLDCIHVLLTRYVENPSLVLNCERRRFTNLCLDAVCGYLVELQSMSSSVAVQAITGNFKSLQAKLERLH
In the case of B1, the binding entry is “binds”.

The values above are taken from paper doi:10.1101/2022.03.04.482948.
